From EP0581464A1, “Ester derivatives and pharmaceutical compositions containing them” (ZENECA LIMITED, priority 1992, dated 1994)
At least one compound was matched to its structure with a doubt left.

Target: T1, 5-LO (Rattus norvegicus, UniProt P12527)
T1 construct: liberation of LTB4 induced by zymosan within an air pouch generated within the subcutaneous tissue of the back of male rats; from tissue; host or cells: subcutaneous air pouch of male rats (in vivo)
T1 sequence (P12527 1-673): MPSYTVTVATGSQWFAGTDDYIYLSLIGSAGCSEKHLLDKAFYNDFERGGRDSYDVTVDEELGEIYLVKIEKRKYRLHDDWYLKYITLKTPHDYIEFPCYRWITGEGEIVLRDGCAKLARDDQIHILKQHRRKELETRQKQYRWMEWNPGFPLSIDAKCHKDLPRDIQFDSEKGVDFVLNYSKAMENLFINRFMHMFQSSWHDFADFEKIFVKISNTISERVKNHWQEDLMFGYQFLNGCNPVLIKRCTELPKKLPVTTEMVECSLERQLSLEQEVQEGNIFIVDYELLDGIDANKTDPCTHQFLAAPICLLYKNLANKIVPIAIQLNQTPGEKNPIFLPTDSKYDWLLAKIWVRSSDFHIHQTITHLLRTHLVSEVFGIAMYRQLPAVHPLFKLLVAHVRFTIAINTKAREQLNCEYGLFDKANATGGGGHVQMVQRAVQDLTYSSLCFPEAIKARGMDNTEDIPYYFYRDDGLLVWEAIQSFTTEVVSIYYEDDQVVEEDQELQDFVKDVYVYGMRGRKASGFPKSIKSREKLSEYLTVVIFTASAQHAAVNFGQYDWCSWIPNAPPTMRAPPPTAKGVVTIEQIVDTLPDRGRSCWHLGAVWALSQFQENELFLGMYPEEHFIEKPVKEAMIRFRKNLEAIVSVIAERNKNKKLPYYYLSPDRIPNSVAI
Test: Test c): in vivo zymosan-induced LTB4 liberation within a subcutaneous air pouch of male rats
Conditions: oral

CO/N=C1\CCOc2cc(COC(=O)/C=C(\N)C3(OC)CCOCC3)ccc21 [Example 5, 4-[(E)-methoximino]chroman-7-ylmethyl(Z)-3-amino-(4-methoxy-tetrahydropyran-4-yl)prop-2-enoate]
IC50 against LTB4 in test (c): approximately 1.5 mg/kg
